In article PMC7694386 one finds binding data, which are given here for eleven molecules.

Chains of the proteins cited; added tags and fusions are not shown.
UniProt O95817: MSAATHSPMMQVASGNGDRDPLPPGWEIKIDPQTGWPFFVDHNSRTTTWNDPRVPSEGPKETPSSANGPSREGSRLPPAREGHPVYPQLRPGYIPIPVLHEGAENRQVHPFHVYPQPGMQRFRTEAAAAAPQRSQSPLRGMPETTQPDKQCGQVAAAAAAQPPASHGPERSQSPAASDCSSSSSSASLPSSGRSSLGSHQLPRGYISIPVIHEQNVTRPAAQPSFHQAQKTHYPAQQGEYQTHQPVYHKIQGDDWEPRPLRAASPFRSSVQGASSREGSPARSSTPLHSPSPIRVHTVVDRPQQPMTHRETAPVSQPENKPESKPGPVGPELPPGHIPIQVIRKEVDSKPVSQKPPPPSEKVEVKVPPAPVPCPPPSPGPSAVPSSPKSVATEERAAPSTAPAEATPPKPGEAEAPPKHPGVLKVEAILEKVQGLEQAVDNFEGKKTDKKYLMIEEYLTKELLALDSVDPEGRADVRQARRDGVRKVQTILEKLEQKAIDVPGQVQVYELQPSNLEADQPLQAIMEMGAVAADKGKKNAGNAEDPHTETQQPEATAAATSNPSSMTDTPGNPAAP

Results are given in words; binding and its absence hold for the method and conditions named. In cells and extracts the contact can be indirect. Here binding means that the protein was enriched with, or labelled near, the bait; the list need not be complete.

The target in the experiment is BAG3 (BCL-2-associated athanogene 3) (human (endogenous in HEK293T)) (UniProt O95817). The experiment is described as follows: affinity purification with mass spectrometry; endogenous BAG3 immunoprecipitated with anti-BAG3 antibody and Protein A/G magnetic beads from HEK293T lysate; cells treated with DMSO (basal) or 10 µM MG132 for 6 h; IgG IP (MG132_IgG) as control; label-free quantification, three biological replicates.

B1: NOB1 (protein, UniProt Q9ULX3 1-412)
chain: MAPVEHVVADAGAFLRHAALQDIGKNIYTIREVVTEIRDKATRRRLAVLPYELRFKEPLPEYVRLVTEFSKKTGDYPSLSATDIQVLALTYQLEAEFVGVSHLKQEPQKVKVSSSIQHPETPLHISGFHLPYKPKPPQETEKGHSACEPENLEFSSFMFWRNPLPNIDHELQELLIDRGEDVPSEEEEEEENGFEDRKDDSDDDGGGWITPSNIKQIQQELEQCDVPEDVRVGCLTTDFAMQNVLLQMGLHVLAVNGMLIREARSYILRCHGCFKTTSDMSRVFCSHCGNKTLKKVSVTVSDDGTLHMHFSRNPKVLNPRGLRYSLPTPKGGKYAINPHLTEDQRFPQLRLSQKARQKTNVFAPDYIAGVSPFVENDISSRSATLQVRDSTLGAGRRRLNPNASRKKFVKKR
B1: the binding entry is recorded as “binds”.

B2: TSR1 (protein, UniProt Q2NL82 1-804)
chain: MAAHRPGPLKQQNKAHKGGRHRGRGSAQRDGKGRLALKTLSKKVRKELSRVDQRHRASQLRKQKKEAVLAEKRQLGGKDGPPHQVLVVPLHSRISLPEAMQLLQDRDTGTVHLNELGNTQNFMLLCPRLKHRWFFTSARPGDLHVVLDMAKVADTILFLLDPLEGWDSTGDYCLSCLFAQGLPTYTLAVQGISGLPLKKQIDTRKKLSKAVEKRFPHDKLLLLDTQQEAGMLLRQLANQKQQHLAFRDRRAYLFAHAVDFVPSEENNLVGTLKISGYVRGQTLNVNRLLHIVGYGDFQMKQIDAPGDPFPLNPRGIKPQKDPDMAMEICATDAVDDMEEGLKVLMKADPGRQESLQAEVIPDPMEGEQTWPTEEELSEAKDFLKESSKVVKKVPKGTSSYQAEWILDGGSQSGGEGDEYEYDDMEHEDFMEEESQDESSEEEEEYETMTIGESVHDDLYDKKVDEEAEAKMLEKYKQERLEEMFPDEVDTPRDVAARIRFQKYRGLKSFRTSPWDPKENLPQDYARIFQFQNFTNTRKSIFKEVEEKEVEGAEVGWYVTLHVSEVPVSVVECFRQGTPLIAFSLLPHEQKMSVLNMVVRRDPGNTEPVKAKEELIFHCGFRRFRASPLFSQHTAADKHKLQRFLTADMALVATVYAPITFPPASVLLFKQKSNGMHSLIATGHLMSVDPDRMVIKRVVLSGHPFKIFTKMAVVRYMFFNREDVLWFKPVELRTKWGRRGHIKEPLGTHGHMKCSFDGKLKSQDTVLMNLYKRVFPKWTYDPYVPEPVPWLKSEISSTVPQGGME
Regarding B2, the binding entry is on record as “binds”.

B3: BYSL (protein, UniProt Q13895 1-437)
chain: MPKFKAARGVGGQEKHAPLADQILAGNAVRAGVREKRRGRGTGEAEEEYVGPRLSRRILQQARQQQEELEAEHGTGDKPAAPRERTTRLGPRMPQDGSDDEDEEWPTLEKAATMTAAGHHAEVVVDPEDERAIEMFMNKNPPARRTLADIIMEKLTEKQTEVETVMSEVSGFPMPQLDPRVLEVYRGVREVLSKYRSGKLPKAFKIIPALSNWEQILYVTEPEAWTAAAMYQATRIFASNLKERMAQRFYNLVLLPRVRDDVAEYKRLNFHLYMALKKALFKPGAWFKGILIPLCESGTCTLREAIIVGSIITKCSIPVLHSSAAMLKIAEMEYSGANSIFLRLLLDKKYALPYRVLDALVFHFLGFRTEKRELPVLWHQCLLTLVQRYKADLATDQKEALLELLRLQPHPQLSPEIRRELQSAVPRDVEDVPITVE
B3: the binding result is on record as “binds”.

B4: CPSF7 (protein, UniProt Q8N684 1-471)
chain: MSEGVDLIDIYADEEFNQDPEFNNTDQIDLYDDVLTATSQPSDDRSSSTEPPPPVRQEPSPKPNNKTPAILYTYSGLRNRRAAVYVGSFSWWTTDQQLIQVIRSIGVYDVVELKFAENRANGQSKGYAEVVVASENSVHKLLELLPGKVLNGEKVDVRPATRQNLSQFEAQARKRECVRVPRGGIPPRAHSRDSSDSADGRATPSENLVPSSARVDKPPSVLPYFNRPPSALPLMGLPPPPIPPPPPLSSSFGVPPPPPGIHYQHLMPPPPRLPPHLAVPPPGAIPPALHLNPAFFPPPNATVGPPPDTYMKASAPYNHHGSRDSGPPPSTVSEAEFEDIMKRNRAISSSAISKAVSGASAGDYSDAIETLLTAIAVIKQSRVANDERCRVLISSLKDCLHGIEAKSYSVGASGSSSRKRHRSRERSPSRSRESSRRHRDLLHNEDRHDDYFQERNREHERHRDRERDRHH
For the molecule B4, the binding entry is given as “binds”.

B5: NOP14 (protein, UniProt P78316 1-857)
chain: MAKAKKVGARRKASGAPAGARGGPAKANSNPFEVKVNRQKFQILGRKTRHDVGLPGVSRARALRKRTQTLLKEYKERDKSNVFRDKRFGEYNSNMSPEEKMMKRFALEQQRHHEKKSIYNLNEDEELTHYGQSLADIEKHNDIVDSDSDAEDRGTLSAELTAAHFGGGGGLLHKKTQQEGEEREKPKSRKELIEELIAKSKQEKRERQAQREDALELTEKLDQDWKEIQTLLSHKTPKSENRDKKEKPKPDAYDMMVRELGFEMKAQPSNRMKTEAELAKEEQEHLRKLEAERLRRMLGKDEDENVKKPKHMSADDLNDGFVLDKDDRRLLSYKDGKMNVEEDVQEEQSKEASDPESNEEEGDSSGGEDTEESDSPDSHLDLESNVESEEENEKPAKEQRQTPGKGLISGKERAGKATRDELPYTFAAPESYEELRSLLLGRSMEEQLLVVERIQKCNHPSLAEGNKAKLEKLFGFLLEYVGDLATDDPPDLTVIDKLVVHLYHLCQMFPESASDAIKFVLRDAMHEMEEMIETKGRAALPGLDVLIYLKITGLLFPTSDFWHPVVTPALVCLSQLLTKCPILSLQDVVKGLFVCCLFLEYVALSQRFIPELINFLLGILYIATPNKASQGSTLVHPFRALGKNSELLVVSAREDVATWQQSSLSLRWASRLRAPTSTEANHIRLSCLAVGLALLKRCVLMYGSLPSFHAIMGPLQALLTDHLADCSHPQELQELCQSTLTEMESQKQLCRPLTCEKSKPVPLKLFTPRLVKVLEFGRKQGSSKEEQERKRLIHKHKREFKGAVREIRKDNQFLARMQLSEIMERDAERKRKVKQLFNSLATQEGEWKALKRKKFKK
Regarding B5, the binding result is recorded as “binds”.

B6: NHP2 (protein, UniProt Q9NX24 1-153)
chain: MTKIKADPDGPEAQAEACSGERTYQELLVNQNPIAQPLASRRLTRKLYKCIKKAVKQKQIRRGVKEVQKFVNKGEKGIMVLAGDTLPIEVYCHLPVMCEDRNLPYVYIPSKTDLGAAAGSKRPTCVIMVKPHEEYQEAYDECLEEVQSLPLPL
As to B6, the binding result is given as “binds”.

B7: NOC4L (protein, UniProt Q9BVI4 1-516)
chain: MEREPGAAGVRRALGRRLEAVLASRSEANAVFDILAVLQSEDQEEIQEAVRTCSRLFGALLERGELFVGQLPSEEMVMTGSQGATRKYKVWMRHRYHSCCNRLGELLGHPSFQVKELALSALLKFVQLEGAHPLEKSKWEGNYLFPRELFKLVVGGLLSPEEDQSLLLSQFREYLDYDDTRYHTMQAAVDAVARVTGQHPEVPPAFWNNAFTLLSAVSLPRREPTVSSFYVKRAELWDTWKVAHLKEHRRVFQAMWLSFLKHKLPLSLYKKVLLIVHDAILPQLAQPTLMIDFLTRACDLGGALSLLALNGLFILIHKHNLEYPDFYRKLYGLLDPSVFHVKYRARFFHLADLFLSSSHLPAYLVAAFAKRLARLALTAPPEALLMVLPFICNLLRRHPACRVLVHRPHGPELDADPYDPGEEDPAQSRALESSLWELQALQRHYHPEVSKAASVINQALSMPEVSIAPLLELTAYEIFERDLKKKGPEPVPLEFIPAQGLLGRPGELCAQHFTLS
As for B7, the binding result was “binds”.

B8: SRSF6 (protein, UniProt Q13247 1-344)
chain: MPRVYIGRLSYNVREKDIQRFFSGYGRLLEVDLKNGYGFVEFEDSRDADDAVYELNGKELCGERVIVEHARGPRRDRDGYSYGSRSGGGGYSSRRTSGRDKYGPPVRTEYRLIVENLSSRCSWQDLKDFMRQAGEVTYADAHKERTNEGVIEFRSYSDMKRALDKLDGTEINGRNIRLIEDKPRTSHRRSYSGSRSRSRSRRRSRSRSRRSSRSRSRSISKSRSRSRSRSKGRSRSRSKGRKSRSKSKSKPKSDRGSHSHSRSRSKDEYEKSRSRSRSRSPKENGKGDIKSKSRSRSQSRSNSPLPVPPSKARSVSPPPKRATSRSRSRSRSKSRSRSRSSSRD
Turning to B8, the binding entry was “binds”.

B9: HNRNPL (protein, UniProt P14866 1-589)
chain: MSRRLLPRAEKRRRRLEQRQQPDEQRRRSGAMVKMAAAGGGGGGGRYYGGGSEGGRAPKRLKTDNAGDQHGGGGGGGGGAGAAGGGGGGENYDDPHKTPASPVVHIRGLIDGVVEADLVEALQEFGPISYVVVMPKKRQALVEFEDVLGACNAVNYAADNQIYIAGHPAFVNYSTSQKISRPGDSDDSRSVNSVLLFTILNPIYSITTDVLYTICNPCGPVQRIVIFRKNGVQAMVEFDSVQSAQRAKASLNGADIYSGCCTLKIEYAKPTRLNVFKNDQDTWDYTNPNLSGQGDPGSNPNKRQRQPPLLGDHPAEYGGPHGGYHSHYHDEGYGPPPPHYEGRRMGPPVGGHRRGPSRYGPQYGHPPPPPPPPEYGPHADSPVLMVYGLDQSKMNCDRVFNVFCLYGNVEKVKFMKSKPGAAMVEMADGYAVDRAITHLNNNFMFGQKLNVCVSKQPAIMPGQSYGLEDGSCSYKDFSESRNNRFSTPEQAAKNRIQHPSNVLHFFNAPLEVTEENFFEICDELGVKRPSSVKVFSGKSERSSSGLLEWESKSDALETLGFLNHYQMKNPNGPYPYTLKLCFSTAQHAS
For B9, the binding result is given as “binds”.

B10: DHX33 (protein, UniProt Q9H6R0 1-707)
chain: MPEEAGFPPAKRFRPGSGPPSRAGSFPPGRQVVMLLTAGSGGRGGGGGRRQQPPLAQPSASPYPEAVELQRRSLPIFQARGQLLAQLRNLDNAVLIGETGSGKTTQIPQYLYEGGISRQGIIAVTQPRRVAAISLATRVSDEKRTELGKLVGYTVRFDDVTSEDTRIKFLTDGMLLREAISDSLLRKYSCVILDEAHERTIHTDVLFGVVKAAQKRRKELGKLPLKVIVMSATMDVDLFSQYFNGAPVLYLEGRQHPIQVFYTKQPQNDYLHAALVSVFQIHQEAPSSQDILVFLTGQEEIEAMSKTCRDIAKHLPDGCPAMLVLPLYASLPYAQQLRVFQGAPKGYRKVIISTNIAETSITITGIKYVVDTGMVKAKKYNPDSGLEVLAVQRVSKTQAWQRTGRAGREDSGICYRLYTEDEFEKFDKMTVPEIQRCNLASVMLQLLAMKVPNVLTFDFMSKPSPDHIQAAIAQLDLLGALEHKDDQLTLTPMGRKMAAFPLEPKFAKTILMSPKFHCTEEILTIVSLLSVDSVLHNPPSRREEVQGVRKKFISSEGDHMTLLNIYRTFKNLGGNKDWCKENFVNSKNMTLVAEVRAQLRDICLKMSMPIASSRGDVESVRRCLAHSLFMSTAELQPDGTYATTDTHQPVAIHPSSVLFHCKPACVVYTELLYTNKCYMRDLCVIDAQWLYEAAPEYFRRKLRTARN
Consider B10, for which the binding result is listed as “binds”.

B11: REXO4 (protein, UniProt Q9GZR2 1-422)
chain: MGKAKVPASKRAPSSPVAKPGPVKTLTRKKNKKKKRFWKSKAREVSKKPASGPGAVVRPPKAPEDFSQNWKALQEWLLKQKSQAPEKPLVISQMGSKKKPKIIQQNKKETSPQVKGEEMPAGKDQEASRGSVPSGSKMDRRAPVPRTKASGTEHNKKGTKERTNGDIVPERGDIEHKKRKAKEAAPAPPTEEDIWFDDVDPADIEAAIGPEAAKIARKQLGQSEGSVSLSLVKEQAFGGLTRALALDCEMVGVGPKGEESMAARVSIVNQYGKCVYDKYVKPTEPVTDYRTAVSGIRPENLKQGEELEVVQKEVAEMLKGRILVGHALHNDLKVLFLDHPKKKIRDTQKYKPFKSQVKSGRPSLRLLSEKILGLQVQQAEHCSIQDAQAAMRLYVMVKKEWESMARDRRPLLTAPDHCSDDA
Regarding B11, the binding entry was “binds”.
